Measurements reported in the supplement of paper PMC10849652.
The other results are listed elsewhere or left out.

Amino acid sequences for entries named in this document (tags omitted). A change or cut given only in a name is not applied to a line headed by its entry.
UniProt Q7Z2E3: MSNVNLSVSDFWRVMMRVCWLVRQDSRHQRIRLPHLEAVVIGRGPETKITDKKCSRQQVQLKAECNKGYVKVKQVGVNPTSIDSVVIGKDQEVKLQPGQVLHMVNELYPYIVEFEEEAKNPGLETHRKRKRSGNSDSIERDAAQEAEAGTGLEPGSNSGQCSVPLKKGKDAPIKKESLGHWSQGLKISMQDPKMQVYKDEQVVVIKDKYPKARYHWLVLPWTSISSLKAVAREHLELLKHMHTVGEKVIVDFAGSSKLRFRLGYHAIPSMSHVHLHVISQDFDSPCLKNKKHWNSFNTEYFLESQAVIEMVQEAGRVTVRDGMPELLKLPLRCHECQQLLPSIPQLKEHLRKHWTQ
UniProt P02647, whole entry, looked up: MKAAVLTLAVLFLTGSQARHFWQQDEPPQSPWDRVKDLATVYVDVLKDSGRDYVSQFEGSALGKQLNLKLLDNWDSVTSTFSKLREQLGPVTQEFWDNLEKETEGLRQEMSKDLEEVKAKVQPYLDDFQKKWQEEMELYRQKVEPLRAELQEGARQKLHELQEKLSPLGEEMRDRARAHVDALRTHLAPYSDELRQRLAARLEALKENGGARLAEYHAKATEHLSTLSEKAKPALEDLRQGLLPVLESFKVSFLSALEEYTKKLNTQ
UniProt P18085: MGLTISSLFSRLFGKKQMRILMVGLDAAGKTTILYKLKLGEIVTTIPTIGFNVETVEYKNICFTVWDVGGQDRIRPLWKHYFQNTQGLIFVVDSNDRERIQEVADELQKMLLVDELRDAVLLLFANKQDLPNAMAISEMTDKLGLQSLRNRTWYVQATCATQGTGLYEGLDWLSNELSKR
UniProt Q14155: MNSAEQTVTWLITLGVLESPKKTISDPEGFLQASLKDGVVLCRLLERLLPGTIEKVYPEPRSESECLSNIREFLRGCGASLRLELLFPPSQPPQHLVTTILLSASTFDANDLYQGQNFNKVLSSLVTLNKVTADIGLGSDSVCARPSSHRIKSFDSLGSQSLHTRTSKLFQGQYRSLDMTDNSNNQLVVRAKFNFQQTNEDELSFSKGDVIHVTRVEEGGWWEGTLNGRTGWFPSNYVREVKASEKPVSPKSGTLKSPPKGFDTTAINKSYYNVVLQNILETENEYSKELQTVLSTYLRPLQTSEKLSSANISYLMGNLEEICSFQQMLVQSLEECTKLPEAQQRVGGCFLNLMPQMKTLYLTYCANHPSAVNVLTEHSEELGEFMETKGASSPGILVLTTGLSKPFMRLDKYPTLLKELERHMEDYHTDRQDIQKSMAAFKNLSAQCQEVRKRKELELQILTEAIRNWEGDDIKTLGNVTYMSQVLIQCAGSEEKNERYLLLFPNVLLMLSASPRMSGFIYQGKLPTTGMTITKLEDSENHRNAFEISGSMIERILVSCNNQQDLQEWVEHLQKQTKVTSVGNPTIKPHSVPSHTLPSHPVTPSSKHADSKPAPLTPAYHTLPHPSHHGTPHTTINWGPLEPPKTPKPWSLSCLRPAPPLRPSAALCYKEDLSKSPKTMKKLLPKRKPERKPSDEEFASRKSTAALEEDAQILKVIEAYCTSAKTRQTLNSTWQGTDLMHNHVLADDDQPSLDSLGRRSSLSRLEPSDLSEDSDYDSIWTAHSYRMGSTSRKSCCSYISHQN
UniProt P27540, whole entry, looked up: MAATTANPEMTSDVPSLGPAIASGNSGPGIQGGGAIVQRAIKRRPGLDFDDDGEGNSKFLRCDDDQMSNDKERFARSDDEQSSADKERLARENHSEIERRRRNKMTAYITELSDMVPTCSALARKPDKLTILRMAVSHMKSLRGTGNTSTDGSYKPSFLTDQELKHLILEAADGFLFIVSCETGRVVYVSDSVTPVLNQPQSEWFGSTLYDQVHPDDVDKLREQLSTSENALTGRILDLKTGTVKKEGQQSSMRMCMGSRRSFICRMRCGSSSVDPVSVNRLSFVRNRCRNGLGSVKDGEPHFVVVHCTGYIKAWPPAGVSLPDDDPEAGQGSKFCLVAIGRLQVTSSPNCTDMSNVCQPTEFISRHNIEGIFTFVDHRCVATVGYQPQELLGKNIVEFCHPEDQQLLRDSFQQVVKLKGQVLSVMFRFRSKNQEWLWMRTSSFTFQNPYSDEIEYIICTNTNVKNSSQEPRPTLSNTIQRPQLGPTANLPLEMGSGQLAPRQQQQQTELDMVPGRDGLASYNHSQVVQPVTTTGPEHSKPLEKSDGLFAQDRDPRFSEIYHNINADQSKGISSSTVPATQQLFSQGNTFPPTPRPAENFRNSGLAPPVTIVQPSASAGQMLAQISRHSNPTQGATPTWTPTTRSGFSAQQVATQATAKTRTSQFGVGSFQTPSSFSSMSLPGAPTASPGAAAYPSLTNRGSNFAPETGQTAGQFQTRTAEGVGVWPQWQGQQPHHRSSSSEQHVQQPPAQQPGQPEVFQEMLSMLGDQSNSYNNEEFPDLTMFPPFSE
UniProt Q8IUR7, whole entry, looked up: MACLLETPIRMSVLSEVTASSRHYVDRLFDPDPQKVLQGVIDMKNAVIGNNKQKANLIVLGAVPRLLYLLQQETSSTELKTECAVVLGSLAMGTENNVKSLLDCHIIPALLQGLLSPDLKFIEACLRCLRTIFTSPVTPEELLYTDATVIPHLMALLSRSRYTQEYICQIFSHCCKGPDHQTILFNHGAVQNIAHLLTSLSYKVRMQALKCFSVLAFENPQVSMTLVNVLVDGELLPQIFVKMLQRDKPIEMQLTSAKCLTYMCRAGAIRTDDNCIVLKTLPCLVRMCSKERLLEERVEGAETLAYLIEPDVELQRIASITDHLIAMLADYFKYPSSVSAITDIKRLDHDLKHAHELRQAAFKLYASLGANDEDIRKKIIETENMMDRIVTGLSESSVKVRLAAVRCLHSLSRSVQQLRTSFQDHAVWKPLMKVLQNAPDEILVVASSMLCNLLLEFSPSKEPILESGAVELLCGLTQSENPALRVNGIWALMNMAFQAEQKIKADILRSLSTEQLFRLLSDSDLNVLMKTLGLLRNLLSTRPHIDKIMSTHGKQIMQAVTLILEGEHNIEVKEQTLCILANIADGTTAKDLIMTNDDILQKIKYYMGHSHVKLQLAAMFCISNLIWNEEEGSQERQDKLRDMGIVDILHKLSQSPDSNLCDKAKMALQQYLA
UniProt Q9Y6D6: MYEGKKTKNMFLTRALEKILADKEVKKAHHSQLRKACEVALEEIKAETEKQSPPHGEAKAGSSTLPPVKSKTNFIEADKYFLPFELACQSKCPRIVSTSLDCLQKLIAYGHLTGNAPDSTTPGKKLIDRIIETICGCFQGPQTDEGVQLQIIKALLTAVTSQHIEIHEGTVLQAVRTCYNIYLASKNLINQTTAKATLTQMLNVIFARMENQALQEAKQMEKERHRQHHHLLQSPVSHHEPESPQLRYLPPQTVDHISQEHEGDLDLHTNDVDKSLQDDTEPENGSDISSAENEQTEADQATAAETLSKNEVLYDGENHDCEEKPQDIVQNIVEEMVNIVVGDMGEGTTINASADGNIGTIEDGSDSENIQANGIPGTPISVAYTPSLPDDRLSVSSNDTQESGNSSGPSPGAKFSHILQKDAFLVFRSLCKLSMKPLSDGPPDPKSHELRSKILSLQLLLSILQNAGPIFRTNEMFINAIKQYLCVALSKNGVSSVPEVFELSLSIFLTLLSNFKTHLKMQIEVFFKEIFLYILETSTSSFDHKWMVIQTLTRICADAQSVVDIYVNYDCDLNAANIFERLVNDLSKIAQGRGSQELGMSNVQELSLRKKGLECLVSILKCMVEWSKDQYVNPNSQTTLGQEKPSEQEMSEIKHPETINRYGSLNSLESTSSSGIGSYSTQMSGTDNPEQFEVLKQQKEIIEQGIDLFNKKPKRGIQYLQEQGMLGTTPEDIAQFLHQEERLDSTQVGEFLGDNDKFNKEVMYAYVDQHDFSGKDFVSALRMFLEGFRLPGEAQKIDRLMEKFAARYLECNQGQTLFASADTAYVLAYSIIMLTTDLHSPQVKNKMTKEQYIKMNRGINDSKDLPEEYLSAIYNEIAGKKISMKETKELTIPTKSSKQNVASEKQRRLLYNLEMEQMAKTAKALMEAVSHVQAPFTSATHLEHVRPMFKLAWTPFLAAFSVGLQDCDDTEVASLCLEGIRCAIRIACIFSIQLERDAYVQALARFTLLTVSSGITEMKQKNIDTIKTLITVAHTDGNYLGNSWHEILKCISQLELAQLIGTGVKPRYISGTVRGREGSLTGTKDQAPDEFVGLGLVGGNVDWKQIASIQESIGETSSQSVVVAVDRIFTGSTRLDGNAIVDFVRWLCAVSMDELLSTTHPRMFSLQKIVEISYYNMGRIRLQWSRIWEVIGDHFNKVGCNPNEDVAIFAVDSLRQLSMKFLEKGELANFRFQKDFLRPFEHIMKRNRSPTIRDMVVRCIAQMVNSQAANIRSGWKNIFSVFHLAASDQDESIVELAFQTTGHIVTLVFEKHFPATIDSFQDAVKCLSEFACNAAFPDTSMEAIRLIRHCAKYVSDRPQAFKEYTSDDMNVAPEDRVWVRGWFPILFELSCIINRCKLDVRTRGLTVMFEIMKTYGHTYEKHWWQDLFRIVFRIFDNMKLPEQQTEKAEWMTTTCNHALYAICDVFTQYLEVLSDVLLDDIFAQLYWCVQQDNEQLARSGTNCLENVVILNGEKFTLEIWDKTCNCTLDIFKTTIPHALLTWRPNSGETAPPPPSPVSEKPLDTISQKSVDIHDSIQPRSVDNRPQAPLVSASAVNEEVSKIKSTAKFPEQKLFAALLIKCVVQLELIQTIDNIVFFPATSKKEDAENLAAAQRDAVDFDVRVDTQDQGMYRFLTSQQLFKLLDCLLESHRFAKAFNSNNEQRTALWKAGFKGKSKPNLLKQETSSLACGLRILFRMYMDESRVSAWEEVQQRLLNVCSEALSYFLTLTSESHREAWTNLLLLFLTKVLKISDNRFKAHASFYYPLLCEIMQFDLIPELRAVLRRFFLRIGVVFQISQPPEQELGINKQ
UniProt P36405: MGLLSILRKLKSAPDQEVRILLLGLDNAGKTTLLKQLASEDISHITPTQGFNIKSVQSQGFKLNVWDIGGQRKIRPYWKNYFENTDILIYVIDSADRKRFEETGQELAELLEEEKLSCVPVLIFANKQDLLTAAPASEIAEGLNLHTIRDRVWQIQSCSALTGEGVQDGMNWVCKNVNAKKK
UniProt P42331: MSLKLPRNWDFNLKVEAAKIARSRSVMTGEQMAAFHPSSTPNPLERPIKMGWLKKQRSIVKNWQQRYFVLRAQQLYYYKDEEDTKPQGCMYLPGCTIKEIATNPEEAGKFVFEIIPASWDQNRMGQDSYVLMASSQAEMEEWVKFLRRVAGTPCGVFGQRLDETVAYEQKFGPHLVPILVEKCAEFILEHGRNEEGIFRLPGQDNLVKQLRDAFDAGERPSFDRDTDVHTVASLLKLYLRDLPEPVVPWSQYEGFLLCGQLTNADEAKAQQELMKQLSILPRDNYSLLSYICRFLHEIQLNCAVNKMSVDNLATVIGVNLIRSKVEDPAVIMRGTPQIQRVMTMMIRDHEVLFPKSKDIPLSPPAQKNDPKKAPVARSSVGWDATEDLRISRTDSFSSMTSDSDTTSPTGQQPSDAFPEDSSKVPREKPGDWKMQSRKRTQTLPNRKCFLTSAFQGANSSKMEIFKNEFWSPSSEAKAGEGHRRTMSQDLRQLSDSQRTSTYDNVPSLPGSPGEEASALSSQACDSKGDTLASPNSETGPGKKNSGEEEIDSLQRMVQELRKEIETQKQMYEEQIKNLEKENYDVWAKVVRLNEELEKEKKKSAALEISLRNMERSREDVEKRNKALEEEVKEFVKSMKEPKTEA
UniProt P40616: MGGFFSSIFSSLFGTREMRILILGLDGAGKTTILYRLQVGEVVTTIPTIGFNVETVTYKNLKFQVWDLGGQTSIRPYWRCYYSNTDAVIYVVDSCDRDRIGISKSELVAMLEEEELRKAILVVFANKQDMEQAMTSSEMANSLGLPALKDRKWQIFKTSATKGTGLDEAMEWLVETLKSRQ
UniProt Q8IVW6: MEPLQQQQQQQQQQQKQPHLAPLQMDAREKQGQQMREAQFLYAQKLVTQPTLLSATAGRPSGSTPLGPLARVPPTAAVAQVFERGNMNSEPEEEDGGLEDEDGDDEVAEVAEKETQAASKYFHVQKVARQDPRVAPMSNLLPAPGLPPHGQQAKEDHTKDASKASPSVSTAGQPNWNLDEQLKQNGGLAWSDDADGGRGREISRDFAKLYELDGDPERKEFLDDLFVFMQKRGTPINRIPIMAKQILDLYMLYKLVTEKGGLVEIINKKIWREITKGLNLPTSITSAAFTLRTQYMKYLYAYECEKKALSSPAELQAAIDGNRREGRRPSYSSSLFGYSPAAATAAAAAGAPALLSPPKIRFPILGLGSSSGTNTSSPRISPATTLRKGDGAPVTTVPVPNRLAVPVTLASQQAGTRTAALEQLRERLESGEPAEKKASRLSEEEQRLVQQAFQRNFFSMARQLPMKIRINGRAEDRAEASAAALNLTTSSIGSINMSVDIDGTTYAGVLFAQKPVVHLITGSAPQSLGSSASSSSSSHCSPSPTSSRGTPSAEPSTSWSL

Tests used:
Assay in all cases: log2 fold change, soluble protein after heating vs DMSO (PISA); higher = thermal stabilisation; K562 lysate, 10 uM; active = over 0.2 and 3.5 SD of the protein, either way, in both replicates (recomputed)
[1] = compound: CCCS(=O)(=O)Nc1ccc(F)c(C(=O)c2c[nH]c3ncc(-c4ccc(Cl)cc4)cc23)c1F [vemurafenib]
In short: (§1)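 The values are log-two fold changes in thermal stability compared with solvent controls and come from duplicates. They were obtained by TMTpro 16plex LC-MS/MS, with channel sums equalised, on the supernatant after 21,000xg for 90 min. That supernatant came from crude K562 extract at 1 mg/mL protein treated with 10 μM compound for 30 min, heated for 3 min across 48°C-58°C, pooled and brought to 0.5% NP-40 at 4°C.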

[2] = compound: CCCS(=O)(=O)Nc1ccc(F)c(C(=O)c2c[nH]c3ncc(Cl)cc23)c1F
In short: as §1

[3] = compound: CCN(CCCOc1ccc2c(Nc3cc(CC(=O)Nc4cccc(F)c4)[nH]n3)ncnc2c1)CCOP(=O)(O)O [barasertib]
In short: as §1

[4] = compound: CC[C@@H]1C(=O)N(C)c2cnc(Nc3ccc(C(=O)NC4CCN(C)CC4)cc3OC)nc2N1C1CCCC1
In short: as §1

[5] = compound: CC[C@@H]1C(=O)N(C)c2cnc(Nc3ccc(C(=O)N[C@H]4CC[C@H](N5CCN(CC6CC6)CC5)CC4)cc3OC)nc2N1C(C)C [volasertib]
In short: as §1

[6] = compound: CCn1c(C(=O)N(C2CC2)C2CC2)cc2c3c(ncn3C)c(Nc3cc(C)n(C)n3)nc21
In short: as §1

[7] = compound: CCn1cc(-c2ccnc3[nH]c(-c4cccc(CN(C)C)c4)cc23)c(-c2ccc(NC(=O)N(C)C)cc2)n1
In short: as §1

[8] = compound: CN1CCC(CNc2ccc3ncc(-c4cccc(OC(F)(F)F)c4)n3n2)CC1
In short: as §1

[9] = compound: CN1CCN(CCOc2cc(OC3CCOCC3)c3c(Nc4c(Cl)ccc5c4OCO5)ncnc3c2)CC1 [saracatinib]
In short: as §1

[10] = compound: CN1CCN(c2nc(C3=C(c4c[nH]c5ccccc45)C(=O)NC3=O)c3ccccc3n2)CC1 [sotrastaurin]
In short: as §1

[11] = compound: CN1CC[C@H](c2c(O)cc(O)c3c(=O)cc(-c4ccccc4Cl)oc23)[C@H](O)C1 [alvocidib]
In short: as §1

[12] = compound: CN1CCc2c(c3ccccc3n2Cc2ccc(C(=O)NO)cc2)C1 [Tubastatin A]
In short: as §1

[13] = compound: CNC(=O)C1=CC=CC=C1NC2=NC(=NC=C2Cl)NC3=C(C=C(C=C3)N4CCOCC4)OC
In short: as §1

[14] = compound: CNC(=O)c1ccc(Nc2ncc(C(F)(F)F)c(NCc3nccnc3N(C)S(C)(=O)=O)n2)cc1 [defactinib]
In short: as §1

[15] = compound: CNc1nc(-c2ccc3c(N)n[nH]c3c2)cc(N2C[C@@H](C(=O)NC3CCCCC3)CC[C@H]2C)n1
In short: as §1

[16] = compound: COC(=O)N[C@@H](C)CNc1nccc(-c2cn(C(C)C)nc2-c2cc(Cl)cc(NS(C)(=O)=O)c2F)n1 [encorafenib]
In short: as §1

[17] = compound: COC(=O)[C@H](CCSC)NC(=O)C1=C(C=C(C=C1)NC[C@H](CS)N)C2=CC=CC=C2
In short: as §1

[18] = compound: COc1cc(Nc2ncc3c(n2)-c2ccc(Cl)cc2C(c2c(F)cccc2OC)=NC3)ccc1C(=O)O [alisertib]
In short: as §1

[19] = compound: COc1cc2nc(-c3cc(F)ccc3O)nc(N[C@@H]3CNC[C@H]3C(C)(C)O)c2cc1OC
In short: as §1

[20] = compound: COc1cc2ncnc(Nc3ccc(F)c(Cl)c3)c2cc1OCCCN1CCOCC1 [gefitinib]
In short: as §1

Target | log2 fold change [1] | log2 fold change [2] | log2 fold change [3] | log2 fold change [4] | log2 fold change [5] | log2 fold change [6] | log2 fold change [7] | log2 fold change [8] | log2 fold change [9] | log2 fold change [10] | log2 fold change [11] | log2 fold change [12] | log2 fold change [13] | log2 fold change [14] | log2 fold change [15] | log2 fold change [16] | log2 fold change [17] | log2 fold change [18] | log2 fold change [19] | log2 fold change [20]
APTX (UniProt Q7Z2E3) | inactive: -0.032 | inactive: 0.019 | inactive: -0.003 | inactive: 0.087 | inactive: -0.12 | inactive: -0.015 | inactive: 0.073 | inactive: -0.047 | inactive: -0.022 | inactive: 0.07 | inactive: -0.022 | inactive: -0.062 | inactive: 0.022 | inactive: -0.052 | inactive: 0.115 | inactive: 0.094 | inactive: 0.081 | inactive: -0.001 | inactive: 0.026 | inactive: 0.052
APOA1 (UniProt P02647) | inactive: 0.033 | inactive: 0.029 | inactive: 0.074 | inactive: 0.096 | inactive: 0.107 | inactive: -0.096 | inactive: -0.039 | inactive: 0.072 | inactive: -0.049 | inactive: -0.058 | inactive: 0.013 | inactive: -0.005 | inactive: 0.104 | inactive: -0.028 | inactive: 0.086 | inactive: -0.098 | inactive: 0.032 | inactive: -0.028 | inactive: 0 | inactive: 0.191
ARPC4 isoform 3 (UniProt P59998) | inactive: -0.012 | inactive: -0.024 | inactive: 0.029 | inactive: -0.012 | inactive: 0.026 | inactive: 0.047 | inactive: 0.005 | inactive: 0.033 | inactive: 0 | inactive: -0.006 | inactive: 0.005 | inactive: 0.045 | inactive: -0.023 | inactive: 0.033 | inactive: 0.002 | inactive: 0.026 | inactive: -0.009 | inactive: 0.015 | inactive: -0.007 | inactive: -0.004
APAF1 (UniProt O14727) | inactive: -0.014 | inactive: -0.012 | inactive: 0.073 | inactive: -0.087 | inactive: -0.056 | inactive: 0.001 | inactive: 0.115 | inactive: -0.012 | inactive: -0.028 | inactive: 0.015 | inactive: -0.006 | inactive: -0.174 | inactive: -0.026 | inactive: -0.015 | inactive: 0.008 | inactive: -0.017 | inactive: 0.129 | inactive: -0.027 | inactive: 0.061 | inactive: 0.017
ARF4 (UniProt P18085) | inactive: 0 | inactive: -0.029 | inactive: 0.034 | inactive: -0.125 | inactive: -0.054 | inactive: 0.042 | inactive: -0.192 | inactive: 0.11 | inactive: -0.024 | inactive: -0.036 | inactive: -0.073 | inactive: -0.004 | inactive: 0.005 | inactive: 0.017 | inactive: 0.112 | inactive: 0.035 | inactive: 0.159 | inactive: -0.025 | inactive: 0.014 | inactive: 0.025
ARPC5 (UniProt O15511) | inactive: -0.01 | inactive: -0.066 | inactive: 0.007 | inactive: 0.048 | inactive: 0.04 | inactive: -0.011 | inactive: -0.053 | inactive: 0.005 | inactive: -0.035 | inactive: 0.024 | inactive: 0.001 | inactive: 0.052 | inactive: 0.02 | inactive: -0.024 | inactive: 0.027 | inactive: -0.029 | inactive: -0.021 | inactive: -0.005 | inactive: -0.001 | inactive: 0.018
ARHGEF10 (UniProt O15013) | inactive: -0.001 | inactive: -0.058 | inactive: -0.118 | inactive: 0.089 | inactive: 0.136 | inactive: -0.221 | inactive: -0.266 | inactive: 0.123 | inactive: 0 | inactive: 0.136 | inactive: -0.116 | inactive: 0.046 | inactive: 0.042 | inactive: -0.141 | inactive: -0.019 | inactive: -0.064 | inactive: -0.018 | inactive: 0.016 | inactive: 0.09 | inactive: 0.117
ARHGEF7 isoform 5 (UniProt Q14155) | inactive: 0.013 | inactive: 0.06 | inactive: 0.052 | inactive: 0.057 | inactive: -0.052 | inactive: -0.016 | inactive: 0.008 | inactive: -0.06 | inactive: 0.027 | inactive: 0.021 | inactive: 0.012 | inactive: -0.017 | inactive: 0.013 | inactive: 0.043 | inactive: 0.033 | inactive: 0.031 | inactive: 0.061 | inactive: 0 | inactive: -0.014 | inactive: -0.008
ARNT (UniProt P27540) | inactive: 0.022 | inactive: 0.013 | inactive: -0.039 | inactive: 0.136 | inactive: -0.067 | inactive: 0.008 | inactive: -0.066 | inactive: 0.027 | inactive: -0.005 | inactive: 0.007 | inactive: -0.026 | inactive: -0.03 | inactive: 0.053 | inactive: -0.014 | inactive: 0.075 | inactive: 0.043 | inactive: 0.03 | inactive: 0.043 | inactive: -0.019 | inactive: 0.022
ARMC8 (UniProt Q8IUR7) | inactive: 0.012 | inactive: 0.008 | inactive: 0.013 | inactive: -0.021 | inactive: 0.02 | inactive: -0.008 | inactive: -0.073 | inactive: 0.063 | inactive: -0.003 | inactive: 0.01 | inactive: 0.019 | inactive: -0.061 | inactive: 0.014 | inactive: 0.007 | inactive: -0.005 | inactive: 0.01 | inactive: 0.003 | inactive: 0.011 | inactive: 0.025 | inactive: -0.006
ARFGEF1 (UniProt Q9Y6D6) | inactive: 0.011 | inactive: 0.025 | inactive: 0.068 | inactive: -0.031 | inactive: -0.039 | inactive: 0.05 | inactive: -0.031 | inactive: -0.044 | inactive: 0.005 | inactive: 0.004 | inactive: 0.001 | inactive: -0.014 | inactive: 0.013 | inactive: 0.008 | inactive: -0.012 | inactive: 0.015 | inactive: 0.044 | inactive: -0.01 | inactive: 0.001 | inactive: -0.005
ARL3 (UniProt P36405) | inactive: 0.011 | inactive: -0.018 | inactive: -0.029 | inactive: 0.013 | inactive: 0.038 | inactive: -0.028 | inactive: 0.037 | inactive: 0.021 | inactive: -0.017 | inactive: 0.007 | inactive: -0.007 | inactive: 0.008 | inactive: 0.022 | inactive: 0.005 | inactive: 0.008 | inactive: -0.031 | inactive: -0.004 | inactive: -0.018 | inactive: -0.015 | inactive: -0.013
ARHGAP25 isoform 4 (UniProt P42331) | inactive: 0.021 | inactive: 0.049 | inactive: 0.081 | inactive: -0.045 | inactive: -0.029 | inactive: -0.032 | inactive: -0.012 | inactive: 0.019 | inactive: -0.034 | inactive: 0.043 | inactive: -0.032 | inactive: -0.122 | inactive: 0.04 | inactive: 0.055 | inactive: 0.054 | inactive: -0.009 | inactive: 0.038 | inactive: 0.012 | inactive: -0.004 | inactive: -0.009
ARL1 (UniProt P40616) | inactive: 0.046 | inactive: 0.007 | inactive: -0.031 | inactive: 0.03 | inactive: -0.066 | inactive: -0.04 | inactive: -0.101 | inactive: -0.005 | inactive: -0.005 | inactive: 0.042 | inactive: -0.017 | inactive: -0.025 | inactive: 0.079 | inactive: 0.001 | inactive: 0.088 | inactive: 0.111 | active: -0.293 | inactive: 0.081 | inactive: 0.053 | inactive: 0.057
ARPC5L (UniProt Q9BPX5) | inactive: 0.011 | inactive: -0.013 | inactive: 0.021 | inactive: 0.058 | inactive: 0.018 | inactive: -0.001 | inactive: -0.023 | inactive: 0.011 | inactive: -0.033 | inactive: -0.009 | inactive: -0.034 | inactive: 0.036 | inactive: -0.014 | inactive: -0.007 | inactive: 0.033 | inactive: -0.018 | inactive: -0.042 | inactive: -0.047 | inactive: 0.005 | inactive: 0.009
ARID3B (UniProt Q8IVW6) | inactive: 0.009 | inactive: -0.129 | inactive: 0.014 | inactive: 0.001 | inactive: -0.121 | inactive: 0.024 | inactive: -0.286 | inactive: 0.052 | inactive: 0.028 | inactive: 0.036 | inactive: -0.112 | inactive: -0.036 | inactive: 0.013 | inactive: 0.154 | inactive: 0.04 | inactive: 0.078 | inactive: 0.027 | inactive: 0.064 | inactive: 0.009 | inactive: -0.039

Just log2 fold change [18] and log2 fold change [16] (two entries from above):
Target | log2 fold change [18] | log2 fold change [16]
ARPC4 isoform 3 (UniProt P59998) | inactive: 0.015 | inactive: 0.026
ARL1 (UniProt P40616) | inactive: 0.081 | inactive: 0.111
